Test results taken from publication doi:10.1101/654111 (bioRxiv, 2019).

Amino acid sequences for entries named in this document (tags omitted). A change or cut given only in a name is not applied to a line headed by its entry. Chains listed by the source or under a name are the forms on record and can include a tag or linker. Residues count along the entry.
UniProt Q8TEQ6: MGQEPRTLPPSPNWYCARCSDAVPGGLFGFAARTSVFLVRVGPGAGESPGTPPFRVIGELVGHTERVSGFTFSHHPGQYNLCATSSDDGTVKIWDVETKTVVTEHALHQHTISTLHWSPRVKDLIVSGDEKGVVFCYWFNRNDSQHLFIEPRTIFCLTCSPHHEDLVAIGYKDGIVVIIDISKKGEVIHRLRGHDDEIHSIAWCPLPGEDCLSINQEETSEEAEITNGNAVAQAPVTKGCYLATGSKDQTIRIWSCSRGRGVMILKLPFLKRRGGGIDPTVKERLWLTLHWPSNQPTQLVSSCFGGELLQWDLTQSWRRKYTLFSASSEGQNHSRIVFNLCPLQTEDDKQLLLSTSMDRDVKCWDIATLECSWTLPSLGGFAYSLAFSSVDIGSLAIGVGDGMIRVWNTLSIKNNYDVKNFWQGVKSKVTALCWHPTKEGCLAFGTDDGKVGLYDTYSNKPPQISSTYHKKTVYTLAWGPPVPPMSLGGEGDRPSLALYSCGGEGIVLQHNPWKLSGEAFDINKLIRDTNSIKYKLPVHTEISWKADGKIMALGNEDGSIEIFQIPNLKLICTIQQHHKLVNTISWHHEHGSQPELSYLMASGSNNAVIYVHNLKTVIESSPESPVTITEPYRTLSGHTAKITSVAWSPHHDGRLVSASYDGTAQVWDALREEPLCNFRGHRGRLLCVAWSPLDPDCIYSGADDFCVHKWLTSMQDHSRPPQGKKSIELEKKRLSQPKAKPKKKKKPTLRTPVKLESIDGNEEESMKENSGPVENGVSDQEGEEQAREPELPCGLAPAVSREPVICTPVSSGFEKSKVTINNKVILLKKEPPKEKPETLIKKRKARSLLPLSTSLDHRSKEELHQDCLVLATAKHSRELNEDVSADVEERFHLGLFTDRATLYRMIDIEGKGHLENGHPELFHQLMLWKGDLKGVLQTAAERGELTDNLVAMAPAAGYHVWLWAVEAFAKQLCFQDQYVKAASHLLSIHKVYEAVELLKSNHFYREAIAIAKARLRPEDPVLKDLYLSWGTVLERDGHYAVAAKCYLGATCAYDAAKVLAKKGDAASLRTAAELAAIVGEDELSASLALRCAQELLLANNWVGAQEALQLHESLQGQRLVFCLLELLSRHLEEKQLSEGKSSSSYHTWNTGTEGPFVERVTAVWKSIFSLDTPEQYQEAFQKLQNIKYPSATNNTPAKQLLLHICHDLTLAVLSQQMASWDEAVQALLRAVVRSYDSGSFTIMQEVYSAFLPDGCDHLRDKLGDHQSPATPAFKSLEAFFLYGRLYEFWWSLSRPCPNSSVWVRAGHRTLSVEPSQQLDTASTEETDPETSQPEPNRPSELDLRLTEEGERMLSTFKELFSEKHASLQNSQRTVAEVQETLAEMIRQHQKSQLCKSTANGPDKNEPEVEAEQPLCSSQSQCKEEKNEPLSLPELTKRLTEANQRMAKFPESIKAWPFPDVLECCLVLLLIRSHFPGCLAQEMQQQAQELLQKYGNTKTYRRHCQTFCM
p85-wt-TAP (Gemin5 cleavage product p85 with a C-terminal TAP tag): residues 845-1508 of Q8TEQ6

Biological target: p85-wt-TAP (Gemin5 cleavage product p85 with a C-terminal TAP tag) (human) (UniProt Q8TEQ6)
Assay: affinity purification with mass spectrometry

Substance: Gemin5 (endogenous full-length protein) (from UniProt Q8TEQ6 1-1508)
- binding: binds

These are yes or no findings as the source states them, for the method shown. Binding seen in cells or lysates may run through a third protein. Here binding means that the protein was enriched with, or labelled near, the bait; the list need not be complete.
